Measurements reported in patent publication US20250263453A1.
No constants are given. Whether binding was seen depends on the method and setting. Binding seen in cells or lysates may run through a third protein. Some entries that bind do so weakly or less than the wild type.

Protein sequences, listed by entry. Tags and fused reporters are not part of them. Residues count along the entry.
UniProt P08670, residues 2-466: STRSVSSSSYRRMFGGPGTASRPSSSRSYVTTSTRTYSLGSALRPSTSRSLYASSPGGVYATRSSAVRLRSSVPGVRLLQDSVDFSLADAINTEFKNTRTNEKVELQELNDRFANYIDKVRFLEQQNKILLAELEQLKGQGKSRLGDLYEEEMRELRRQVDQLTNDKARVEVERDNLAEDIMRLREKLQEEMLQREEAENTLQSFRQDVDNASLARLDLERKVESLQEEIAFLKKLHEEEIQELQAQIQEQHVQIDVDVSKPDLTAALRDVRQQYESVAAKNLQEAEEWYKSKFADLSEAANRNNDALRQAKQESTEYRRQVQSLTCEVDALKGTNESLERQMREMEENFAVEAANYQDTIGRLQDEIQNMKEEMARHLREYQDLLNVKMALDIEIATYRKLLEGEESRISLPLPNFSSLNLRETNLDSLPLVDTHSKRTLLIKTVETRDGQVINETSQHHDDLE
UniProt P53350, residues 2-603: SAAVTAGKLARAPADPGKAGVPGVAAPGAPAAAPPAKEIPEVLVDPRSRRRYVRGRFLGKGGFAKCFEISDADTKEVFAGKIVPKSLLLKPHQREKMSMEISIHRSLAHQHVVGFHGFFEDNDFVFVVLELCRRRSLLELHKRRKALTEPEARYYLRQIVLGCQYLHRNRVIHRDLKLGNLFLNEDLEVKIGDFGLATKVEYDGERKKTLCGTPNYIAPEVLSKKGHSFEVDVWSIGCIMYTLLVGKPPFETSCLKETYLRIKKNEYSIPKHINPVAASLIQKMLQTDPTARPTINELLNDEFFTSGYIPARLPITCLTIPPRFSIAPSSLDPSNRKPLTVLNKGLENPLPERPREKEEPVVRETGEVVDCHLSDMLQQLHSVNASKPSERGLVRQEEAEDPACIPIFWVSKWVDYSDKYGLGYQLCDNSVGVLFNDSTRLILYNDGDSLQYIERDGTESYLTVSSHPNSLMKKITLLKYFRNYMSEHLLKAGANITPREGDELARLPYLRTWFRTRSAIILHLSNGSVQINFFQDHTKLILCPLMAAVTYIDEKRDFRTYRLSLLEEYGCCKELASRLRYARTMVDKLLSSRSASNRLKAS

Key:
[1] = biological target: vimentin (human) (UniProt P08670); assay: co-immunoprecipitation with a PLK1 antibody, NCI-H460 cells treated with 2.5 ng/ml TGF-β
[2] = biological target: vimentin (human) (UniProt P08670); assay: co-immunoprecipitation, TGF-β-treated lung cancer cells (summary of Example 2)
[3] = biological target: vimentin (human) (UniProt P08670); assay: co-immunoprecipitation with a PLK1 antibody and agarose beads, immunoblot; A549 and NCI-H460 cells with or without TGF-β
[4] = biological target: vimentin (human) (UniProt P08670); assay: co-immunoprecipitation with a PLK1 antibody, A549 cells treated with 2.5 ng/ml TGF-β

- binding [1]: binds
- binding [2]: binds
- binding [3]: binds
- binding [4]: binds
Substance: PLK1 (polo-like kinase 1) (from UniProt P53350 2-603) (enzyme)
